Assay results from the supplement of paper PMC8960247.

Tested on: 621-102 (TSC2-deficient)
Test: relative viability vs DMSO (fraction); higher = less cytotoxic
Conditions: serum: 0.1% FBS, 72 h

SMILES | relative viability (0.0128 nM) | relative viability (0.064 nM) | relative viability (0.32 nM) | relative viability (1.6 nM) | relative viability (8 nM) | relative viability (40 nM) | relative viability (200 nM) | relative viability (1000 nM) | relative viability (5000 nM)
O=C1NC(=O)C(c2ccccc2)(c2ccccc2)N1 [Phenytoin] | 0.527 | 0.798 | 0.841 | 0.735 | 0.611 | 0.748 | 0.665 | 0.828 | 0.583
Cc1ccccc1-n1c(Cn2ncc3c(N)ncnc32)nc2cccc(C)c2c1=O [PIK-293] | 0.695 | 0.677 | 0.639 | 0.783 | 0.696 | 0.75 | 0.747 | 0.668 | 0.741
O=c1[nH]c2ccccc2n1CCCN1CCC(n2c(=O)[nH]c3cc(Cl)ccc32)CC1 [Domperidone] | 0.786 | 0.533 | 0.461 | 0.519 | 0.346 | 0.382 | 0.264 | 0.289 | 0.344
c1ccc2c(CCNc3ccc(Nc4ccncc4)cc3)c[nH]c2c1 | 0.814 | 0.825 | 0.836 | 0.806 | 0.893 | 0.695 | 0.517 | 0.0504 | 0.0418
COc1cc(OC)c(OC)cc1C=O [Asaraldehyde] | 0.593 | 0.838 | 0.894 | 0.934 | 1.02 | 0.903 | 0.956 | 0.354 | 0.725
CCOc1nc2cccc(C(=O)OC(C)OC(=O)OC3CCCCC3)c2n1Cc1ccc(-c2ccccc2-c2nn[nH]n2)cc1 (stereo not given) [Candesartan Cilexetil] | 0.799 | 0.943 | 0.16 | 0.174 | 0.115 | 0.144 | 0.154 | 0.117 | 0.0636
CC(=O)O[C@@]12CO[C@@H]1C[C@H](O)[C@@]1(C)C(=O)[C@H](O)C3=C(C)[C@@H](OC(=O)[C@H](O)[C@@H](NC(=O)OC(C)(C)C)c4ccccc4)C[C@@](O)([C@@H](OC(=O)c4ccccc4)[C@H]21)C3(C)C [Docetaxel] | 0.895 | 0.767 | 0.274 | 0.0189 | 0.0151 | 0.0112 | 0.0147 | 0.0117 | 0.0157
COc1cc2c(Oc3ccc(NC(=O)C4(C(=O)Nc5ccc(F)cc5)CC4)cc3F)ccnc2cc1OCCCN1CCOCC1 | 0.997 | 0.976 | 0.966 | 0.899 | 0.977 | 0.918 | 0.0323 | 0.0145 | 0.00974
C[C@@H](Oc1cc(-n2cnc3ccc(CN4CCN(C)CC4)cc32)sc1C(N)=O)c1ccccc1C(F)(F)F | 0.808 | 0.692 | 0.802 | 0.82 | 0.449 | 0.0133 | 0.0101 | 0.00948 | 0.0171
CCOc1cc2ncc(C#N)c(Nc3ccc(OCc4ccccn4)c(Cl)c3)c2cc1NC(=O)/C=C/CN(C)C [Neratinib (HKI-272)] | 0.954 | 0.9 | 0.894 | 0.886 | 0.726 | 0.807 | 0.825 | 0.578 | 0.0119
N#C/C(=C\c1ccc(O)c(O)c1)C(=O)NCc1ccccc1 [AG-490] | 0.715 | 0.809 | 0.774 | 0.801 | 0.774 | 0.722 | 0.675 | 0.666 | 0.565
COc1cc(Nc2ncc(F)c(Nc3ccc4c(n3)NC(=O)C(C)(C)O4)n2)cc(OC)c1OC [R406(free base)] | 1.04 | 0.819 | 0.759 | 0.898 | 0.886 | 0.79 | 0.674 | 0.512 | 0.181
CCNC(=O)c1noc(-c2cc(C(C)C)c(O)cc2O)c1-c1ccc(CN2CCOCC2)cc1 [NVP-AUY922] | 0.856 | 0.972 | 0.758 | 0.377 | 0.0164 | 0.00924 | 0.0141 | 0.00707 | 0.00583
Cc1ccc(F)c(NC(=O)Nc2ccc(-c3cccc4[nH]nc(N)c34)cc2)c1 [ABT-869] | 0.717 | 0.691 | 0.581 | 0.646 | 0.606 | 0.63 | 0.502 | 0.495 | 0.0266
COCC[n+]1c2c(n(Cc3cnccn3)c1C)C(=O)c1ccccc1C2=O [YM155] | 0.853 | 0.788 | 0.842 | 0.697 | 0.553 | 0.481 | 0.369 | 0.323 | 0.0338
CO[C@@H](C(=O)N1Cc2[nH]nc(NC(=O)c3ccc(N4CCN(C)CC4)cc3)c2C1)c1ccccc1 | 0.87 | 0.855 | 0.69 | 0.946 | 0.775 | 0.835 | 0.0334 | 0.0096 | 0.00612
N#Cc1ccc(C(c2ccc(C#N)cc2)n2cncn2)cc1 [Letrozole] | 0.887 | 0.875 | 0.775 | 0.752 | 1.03 | 0.747 | 0.729 | 0.555 | 0.612
COc1cc2/c(=N/c3ccc(Br)cc3F)nc[nH]c2cc1OCC1CCN(C)CC1 [Vandetanib] | 0.557 | 0.56 | 0.531 | 0.485 | 0.542 | 0.611 | 0.725 | 0.605 | 0.369
CCOC(=O)[C@H](CCc1ccccc1)N[C@H]1CCc2ccccc2N(CC(=O)O)C1=O [Benazepril HCl] | 0.632 | 0.66 | 0.816 | 0.734 | 0.767 | 0.764 | 0.793 | 0.736 | 0.811
Cc1cc(NS(=O)(=O)c2ccc(N)cc2)no1 [Sulfamethoxazole] | 0.67 | 0.673 | 0.717 | 0.732 | 0.721 | 0.665 | 0.631 | 0.606 | 0.538
CC(NC(C)(C)C)C(=O)c1cccc(Cl)c1 (stereo not given) [Amfebutamone HCl] | 0.73 | 0.766 | 0.781 | 0.717 | 0.768 | 0.692 | 0.728 | 0.634 | 0.645
CN1C2CCCC1CC(NC(=O)c1nn(C)c3ccccc13)C2 (stereo not given) [Granisetron HCl] | 1.37 | 1.44 | 1.84 | 1.77 | 1.22 | 0.836 | 1.13 | 1.5 | 1.44
Cc1cc(C(=O)NOCCO)c(Nc2ccc(I)cc2F)n(C)c1=O [AZD8330] | 0.905 | 0.886 | 0.932 | 0.911 | 0.949 | 0.874 | 0.733 | 0.258 | 0.0106

An excerpt of these results, tab-delimited:
SMILES	relative viability (0.0128 nM)	relative viability (0.064 nM)	relative viability (0.32 nM)	relative viability (1.6 nM)	relative viability (8 nM)	relative viability (40 nM)	relative viability (200 nM)	relative viability (1000 nM)	relative viability (5000 nM)
O=C1NC(=O)C(c2ccccc2)(c2ccccc2)N1 [Phenytoin]	0.527	0.798	0.841	0.735	0.611	0.748	0.665	0.828	0.583
COc1cc(OC)c(OC)cc1C=O [Asaraldehyde]	0.593	0.838	0.894	0.934	1.02	0.903	0.956	0.354	0.725
N#Cc1ccc(C(c2ccc(C#N)cc2)n2cncn2)cc1 [Letrozole]	0.887	0.875	0.775	0.752	1.03	0.747	0.729	0.555	0.612

Next part

SMILES | relative viability (0.0128 nM) | relative viability (0.064 nM) | relative viability (0.32 nM) | relative viability (1.6 nM) | relative viability (8 nM) | relative viability (40 nM) | relative viability (200 nM) | relative viability (1000 nM) | relative viability (5000 nM)
O=C(NOCC(O)CO)c1cc(Br)c(F)c(F)c1Nc1ccc(I)cc1F (stereo not given) | 0.794 | 0.845 | 0.814 | 0.844 | 0.815 | 0.806 | 0.854 | 0.618 | 0.446
O=C1N=C(O)NC1(c1ccccc1)c1ccccc1 [Phenytoin sodium] | 1.07 | 1.06 | 1.11 | 1.07 | 0.99 | 0.792 | 0.909 | 0.793 | 0.839
O=C(c1ccc(/C=C/c2n[nH]c3ccccc23)cc1)N1CCNCC1 [KW 2449] | 0.822 | 0.892 | 0.798 | 0.778 | 0.79 | 0.726 | 0.792 | 0.0313 | 0.0165
CN1CC[C@H](c2c(O)cc(O)c3c(=O)cc(-c4ccccc4Cl)oc23)[C@H](O)C1 [Flavopiridol hydrochloride] | 0.735 | 0.695 | 0.718 | 0.659 | 0.656 | 0.552 | 0.101 | 0.00782 | 0.0114
COC(=O)C1=C(C)NC(C)=C(C(=O)OCCN2CCN(C(c3ccccc3)c3ccccc3)CC2)C1c1cccc([N+](=O)[O-])c1 (stereo not given) [Manidipine] | 0.748 | 0.706 | 0.736 | 0.744 | 0.751 | 0.742 | 0.747 | 0.687 | 0.712
c1ccc2c(-c3cnn4cc(-c5ccc(N6CCNCC6)cc5)cnc34)ccnc2c1 | 1.22 | 1.2 | 1.15 | 1.02 | 0.841 | 0.161 | 0.169 | 0.0639 | 0.00807
O=C(NOCC1CC1)c1ccc(F)c(F)c1Nc1ccc(I)cc1Cl | 0.619 | 0.799 | 0.741 | 0.716 | 0.705 | 0.661 | 0.706 | 0.412 | 0.0582
Cc1cccc(-c2[nH]c(C(C)(C)C)nc2-c2ccc3nccnc3c2)n1 | 0.982 | 0.937 | 0.892 | 0.907 | 0.662 | 0.877 | 0.79 | 0.773 | 0.755
NC(=O)[C@@H](CCC(F)(F)F)N(Cc1ccc(-c2ncon2)cc1F)S(=O)(=O)c1ccc(Cl)cc1 | 0.82 | 0.765 | 0.855 | 0.852 | 0.773 | 0.933 | 0.746 | 0.659 | 0.61
CC(C)(C)c1cc(C(C)(C)C)c(NC(=O)c2c[nH]c3ccccc3c2=O)cc1O [VX-770] | 0.889 | 0.883 | 0.855 | 0.838 | 0.776 | 0.735 | 0.74 | 0.729 | 0.544
COc1cc2c(Oc3ccc4[nH]c(C)cc4c3F)ncnc2cc1OCCCN1CCCC1 [AZD2171] | 0.764 | 0.876 | 0.871 | 0.716 | 0.803 | 0.851 | 0.724 | 0.446 | 0.0589
Cc1cc(C(C)(C)C)c(O)c(C)c1CC1=NCCN1 [Oxymetazoline hydrochloride] | 0.781 | 0.686 | 0.608 | 0.225 | 0.635 | 0.643 | 0.563 | 0.596 | 0.601
CCN(CC)Cc1ccc2cc(COC(=O)Nc3ccc(C(=O)NO)cc3)ccc2c1 [ITF2357] | 0.727 | 0.654 | 0.667 | 0.664 | 0.571 | 0.601 | 0.191 | 0.0156 | 0.0314
CCS(=O)(=O)c1cccc(-c2cc(C(=O)NC3CCN(C)CC3)c(C)c3[nH]c4ncc(C)cc4c23)c1 [TAK-901] | 0.944 | 0.996 | 0.999 | 1.02 | 0.836 | 0.15 | 0.0689 | 0.0302 | 0.0117
COc1ccccc1N1CCN(CC(O)COc2cccc3ccccc23)CC1 (stereo not given) [Naftopidil] | 0.603 | 0.561 | 0.544 | 0.63 | 0.594 | 0.558 | 0.545 | 0.49 | 0.317
CCCCc1nc2cc(/C=C/C(=O)NO)ccc2n1CCN(CC)CC [SB939] | 0.869 | 0.751 | 0.757 | 0.723 | 0.677 | 0.168 | 0.00615 | 0.00446 | 0.00518
NC(=O)c1ccc(-c2nc(-c3ccccn3)c(-c3ccc4c(c3)OCO4)[nH]2)cc1 | 0.852 | 0.892 | 0.836 | 0.856 | 0.791 | 0.818 | 0.814 | 0.831 | 0.631
CC(C)C[C@H](NC(=O)[C@H](Cc1ccccc1)NC(=O)c1cnccn1)B(O)O [Bortezomib (PS-341)] | 1.21 | 1.55 | 1.7 | 0.668 | 0.0283 | 0.0144 | 0.0159 | 0.0132 | 0.00889
CCCN[C@H]1CCc2nc(N)sc2C1 [Pramipexole dihydrochloride monohydrate] | 0.881 | 0.868 | 0.883 | 0.875 | 0.885 | 0.886 | 0.81 | 0.77 | 0.763
CC[C@]12C=CCN3CC[C@@]4(c5cc([C@@]6(C(=O)OC)C[C@@H]7C[C@@H](C(C)(F)F)CN(Cc8c6[nH]c6ccccc86)C7)c(OC)cc5N(C)[C@H]4[C@@](O)(C(=O)OC)[C@@H]1OC(C)=O)[C@@H]32 [Vinflunine Tartrate] | 0.942 | 0.974 | 0.988 | 0.837 | 0.438 | 0.0619 | 0.0561 | 0.0318 | 0.0295
COC(=O)[C@@H]1[C@H]2C[C@H]3c4[nH]c5ccccc5c4CCN3C[C@@H]2CC[C@@H]1O [Yohimbine hydrochloride] | 0.93 | 0.955 | 0.828 | 0.847 | 0.831 | 0.865 | 0.832 | 0.79 | 0.733
CC(=O)OCC1=C(C(=O)O)N2C(=O)[C@@H](N)[C@H]2SC1 [7-Aminocephalosporanic acid] | 0.946 | 1.03 | 0.944 | 0.973 | 0.826 | 0.846 | 0.792 | 0.826 | 0.741

Where a name gives a salt, the structure may show the parent alone. This is a noisy data set.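 Viability of TSC2-lost, immortalized human renal angiomyolipoma cells bearing an empty vector was measured by luminescent ATP assay, normalized to each plate's vehicle-treated wells, in low-serum medium, where TSC2-rescued cells do not grow.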
